Common to all, as to assay: DAPPL (digital affinity profiling via proximity ligation, sequencing)
What all share (conditions): 10 mM Tris-HCl pH 7.5, 50 mM NaCl, 1 mM DTT, 4% glycerol, room temperature, 30 min; GST-TFs on glutathione beads, 16-mer random dsDNA library, 0.1% …; high values mean tight binding; double strand, one strand shown; scale: fold enrichment (6-mer frequency, TF over GST control)

Protein sequences, listed by entry. Tags and fused reporters are not part of them. Lines headed by an entry give the natural chain unless they say otherwise; changes in a name come on top.
UniProt Q9Y603: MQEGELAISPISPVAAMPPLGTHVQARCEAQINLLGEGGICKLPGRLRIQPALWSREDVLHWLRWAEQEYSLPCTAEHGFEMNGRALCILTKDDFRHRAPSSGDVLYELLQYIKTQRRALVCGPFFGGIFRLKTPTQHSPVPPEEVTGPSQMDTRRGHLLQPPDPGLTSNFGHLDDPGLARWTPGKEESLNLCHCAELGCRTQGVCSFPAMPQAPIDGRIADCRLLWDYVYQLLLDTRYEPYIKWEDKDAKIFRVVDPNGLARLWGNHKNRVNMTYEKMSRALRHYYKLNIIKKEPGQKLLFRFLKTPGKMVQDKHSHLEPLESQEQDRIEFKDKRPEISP
UniProt P41212: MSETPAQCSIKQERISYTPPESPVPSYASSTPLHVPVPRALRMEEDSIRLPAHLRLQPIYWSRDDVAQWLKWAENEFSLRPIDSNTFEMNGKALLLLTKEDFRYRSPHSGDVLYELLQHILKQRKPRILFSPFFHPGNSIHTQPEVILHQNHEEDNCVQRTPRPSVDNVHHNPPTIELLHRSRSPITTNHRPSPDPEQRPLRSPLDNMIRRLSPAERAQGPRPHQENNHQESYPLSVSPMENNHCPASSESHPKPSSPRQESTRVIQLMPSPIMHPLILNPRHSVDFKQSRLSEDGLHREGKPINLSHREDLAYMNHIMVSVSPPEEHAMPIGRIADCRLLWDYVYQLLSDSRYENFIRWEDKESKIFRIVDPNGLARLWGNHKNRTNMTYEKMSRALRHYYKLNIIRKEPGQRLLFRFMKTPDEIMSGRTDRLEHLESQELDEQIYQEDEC

Assay [1] deals with T1, ELF3 (UniProt P78545).
T1 sequence: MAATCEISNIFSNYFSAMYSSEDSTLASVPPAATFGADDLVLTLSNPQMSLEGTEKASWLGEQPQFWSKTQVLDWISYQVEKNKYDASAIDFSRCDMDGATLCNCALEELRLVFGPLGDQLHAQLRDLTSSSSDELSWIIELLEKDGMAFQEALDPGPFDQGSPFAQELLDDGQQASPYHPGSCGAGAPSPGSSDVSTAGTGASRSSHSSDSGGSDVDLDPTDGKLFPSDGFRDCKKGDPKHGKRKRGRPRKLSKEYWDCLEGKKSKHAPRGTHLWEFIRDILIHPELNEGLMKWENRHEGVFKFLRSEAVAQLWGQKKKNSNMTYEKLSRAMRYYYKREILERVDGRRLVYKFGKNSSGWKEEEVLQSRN

In assay [2] the target is ETV7 (UniProt Q9Y603).
Assay [3] deals with ETV6 (UniProt P41212).

The entries are a selection whose mix differs from that of the whole data set. At the low end of the ranking the order means little.

For 75 sequences, binding signal results are on record in article PMC7862700.

Turning to AACGCA, the binding signal in assay [1] stood at 1.03; in assay [2], 0.953.

Turning to AGCAAA, the binding signal in assay [1] is 1.21; in assay [2], 0.982.

With TAGAAA, the binding signal was 0.991 in assay [1] and 1.12 in assay [2].

With TTTCGC, the values for the binding signal in assay [1] and in assay [2] were 0.978 and 1.16, respectively.

For the sequence TATTAG, the binding signal in assay [1] stood at 0.982; in assay [2] it was 1.03.

Take TAGAAC: the results for the binding signal in assay [1] and in assay [2] were 0.974 and 0.923, respectively.

For GCAACA, the binding signal in assay [1] came out at 0.994; in assay [2], 0.988.

As to TCTTTT, the results for the binding signal in assay [1] and in assay [2] were 1.41 and 1.56, respectively.

GCTGCA: the binding signal was 0.859 in assay [1] and 0.96 in assay [2].

On to TGCTTG, for which the binding signal was determined as 0.971 in assay [1] and 1.19 in assay [2].

Consider GTTACC, for which the results for the binding signal in assay [1] and in assay [2] were 1.06 and 1.02, respectively.

As to ACTTGT, the binding signal in assay [1] turned out to be 1.16; in assay [2], 1.2.

Take GGTACA: the binding signal in assay [1] was determined as 0.986; in assay [2] it was 1.11.

Consider CCTGGC, for which the binding signal in assay [1] is 0.972; in assay [2] it was 0.99.

For the sequence TTGTCA, the values for the binding signal in assay [1] and in assay [2] were 0.923 and 1.2, respectively.

As for TGGTTG, the binding signal was determined as 0.916 in assay [1] and 0.92 in assay [2].

For GTATCT, the binding signal in assay [1] amounted to 1.26; in assay [2] it was 1.14.

With GGTTAT, the binding signal in assay [1] was determined as 0.989; in assay [2], 1.12.

Take CCTTAA: the binding signal was 1.37 in assay [1] and 1.21 in assay [2].

With CCGGCG, the results for the binding signal in assay [1] and in assay [2] were 0.924 and 0.9, respectively.

For the sequence CCGGTG, the results for the binding signal in assay [1] and in assay [2] were 0.871 and 1.04, respectively.

In the case of TAGATC, the binding signal in assay [1] was 0.998; in assay [2], 1.06.

TAATCG: the binding signal in assay [1] came out at 1.07; in assay [2], 0.903.

As to AAACCG, the values for the binding signal in assay [1] and in assay [2] were 1.07 and 1.04, respectively.

ACGGAT: the binding signal in assay [1] was found to be 1.3; in assay [2] it was 1.13.

As to ACTGCC, the binding signal turned out to be 1.24 in assay [1] and 1.34 in assay [2].

In the case of AGTATA, the values for the binding signal in assay [1] and in assay [2] were 0.981 and 0.993, respectively.

GGTTAC: the binding signal in assay [1] stood at 1.07; in assay [2], 0.95.

With TCCACT, the binding signal was determined as 1.25 in assay [1] and 1.4 in assay [2].

Consider AGTATT, for which the results for the binding signal in assay [1] and in assay [2] were 1.17 and 1.3, respectively.

Consider CTCACC, for which the binding signal in assay [1] turned out to be 1.33; in assay [2], 1.06.

As for ATGCTG, the figures for the binding signal in assay [1] and in assay [2] were 1.26 and 0.988, respectively.

In the case of CGACTG, the values for the binding signal in assay [1] and in assay [2] were 0.986 and 0.984, respectively.

On to GATAAA, for which the binding signal was 0.863 in assay [1] and 0.938 in assay [2].

Regarding ATAACG, the binding signal in assay [1] amounted to 0.916; in assay [2] it was 0.907.

For the sequence AGTAAC, the results for the binding signal in assay [1] and in assay [2] were 0.991 and 0.967, respectively.

Turning to TTGGTC, the binding signal in assay [1] turned out to be 0.975; in assay [2] it was 1.18.

With CCACAC, the binding signal in assay [1] is 0.999; in assay [2], 0.934.

For the sequence TAGTGC, the figures for the binding signal in assay [1] and in assay [2] were 1.03 and 0.993, respectively.

On to TGGCGT, for which the figures for the binding signal in assay [1], in assay [2] and in assay [3] were 0.878, 0.973 and 0.889, respectively.

As to GCGATC, the binding signal in assay [1] came to 0.941; in assay [2], 0.919.

For AATCGT, the values for the binding signal in assay [1], in assay [2] and in assay [3] were 0.832, 0.828 and 0.909, respectively.

Take CCATGG: the binding signal in assay [1] worked out at 0.999; in assay [2] it was 0.99.

For the sequence AGCGGC, the results for the binding signal in assay [1] and in assay [2] were 0.861 and 1.01, respectively.

For the sequence GCATCT, the binding signal in assay [1] is 0.964; in assay [2], 0.822.

For CACACG, the binding signal stood at 1.07 in assay [1] and 0.987 in assay [2].

Regarding TGCCGA, the binding signal in assay [1] amounted to 1.16; in assay [2] it was 1.15.

In the case of AGATTT, the binding signal in assay [1] was 1.21; in assay [2], 1.16.

For the sequence ACGCGT, the binding signal in assay [1] stood at 0.992; in assay [2] it was 0.99; in assay [3], 0.962.

With CCAATT, the figures for the binding signal in assay [1] and in assay [2] were 1.39 and 1.21, respectively.

Turning to ACGCTC, the values for the binding signal in assay [1], in assay [2] and in assay [3] were 0.989, 0.974 and 0.948, respectively.

CTGTGC: the binding signal in assay [1] was determined as 1.08; in assay [2] it was 0.98.

In the case of TGGGCA, the results for the binding signal in assay [1] and in assay [2] were 0.848 and 0.915, respectively.

Regarding CCGCTC, the binding signal in assay [1] was found to be 1.54; in assay [2], 1.42.

Turning to TGGAAT, the binding signal came out at 1.21 in assay [1] and 1.27 in assay [2].

With ACTGTA, the results for the binding signal in assay [1] and in assay [2] were 0.943 and 0.978, respectively.

As to GATCCA, the binding signal was determined as 1.15 in assay [1] and 0.969 in assay [2].

Take ACCAAA: the binding signal in assay [1] was 0.892; in assay [2], 0.93; in assay [3], 1.03.

With GCTAGG, the binding signal in assay [1] was determined as 1.14; in assay [2], 0.976.

As to GGACTC, the values for the binding signal in assay [1], in assay [2] and in assay [3] were 0.952, 0.954 and 0.95, respectively.

Consider AGATAA, for which the binding signal in assay [1] came out at 0.929; in assay [2] it was 0.93; in assay [3] it was 1.06.

In the case of TTCTGA, the binding signal was determined as 1.13 in assay [1] and 1.19 in assay [2].

For ATGCAG, the results for the binding signal in assay [1] and in assay [2] were 1.05 and 0.97, respectively.

As for AAACAC, the binding signal in assay [1] turned out to be 1.33; in assay [2], 1.34.

In the case of GTGTTG, the binding signal was found to be 0.9 in assay [1], 0.905 in assay [2] and 0.911 in assay [3].

Turning to GTGACT, the binding signal stood at 0.851 in assay [1], 0.805 in assay [2] and 0.971 in assay [3].

Regarding CTTAAG, the binding signal in assay [1] was found to be 0.93; in assay [2], 1.04.

TCGTCC: the binding signal in assay [1] and in assay [2] was 1.08 throughout.

For the sequence CGAACT, the binding signal was 1.02 in assay [1] and 1.15 in assay [2].

For CCGTTT, the values for the binding signal in assay [1] and in assay [2] were 1.44 and 1.49, respectively.

GTTCAC: the binding signal stood at 1.12 in assay [1] and 1.29 in assay [2].

Regarding GTGGAA, the binding signal worked out at 0.976 in assay [1], 0.919 in assay [2] and 0.937 in assay [3].

In the case of AATCAG, the results for the binding signal in assay [1] and in assay [2] were 1.14 and 1.12, respectively.

Turning to CGAACA, the binding signal in assay [1] and in assay [2] was 1.2 throughout.

For the sequence CATAAA, the binding signal in assay [1] stood at 1.08; in assay [2], 0.981; in assay [3] it was 0.983.
